The target in the assay is T1, Tag-PDZK1 (TAP tag linked to full-length PDZK1), expressed in HEK293 cells (UniProt Q9JIL4).
T1 sequence: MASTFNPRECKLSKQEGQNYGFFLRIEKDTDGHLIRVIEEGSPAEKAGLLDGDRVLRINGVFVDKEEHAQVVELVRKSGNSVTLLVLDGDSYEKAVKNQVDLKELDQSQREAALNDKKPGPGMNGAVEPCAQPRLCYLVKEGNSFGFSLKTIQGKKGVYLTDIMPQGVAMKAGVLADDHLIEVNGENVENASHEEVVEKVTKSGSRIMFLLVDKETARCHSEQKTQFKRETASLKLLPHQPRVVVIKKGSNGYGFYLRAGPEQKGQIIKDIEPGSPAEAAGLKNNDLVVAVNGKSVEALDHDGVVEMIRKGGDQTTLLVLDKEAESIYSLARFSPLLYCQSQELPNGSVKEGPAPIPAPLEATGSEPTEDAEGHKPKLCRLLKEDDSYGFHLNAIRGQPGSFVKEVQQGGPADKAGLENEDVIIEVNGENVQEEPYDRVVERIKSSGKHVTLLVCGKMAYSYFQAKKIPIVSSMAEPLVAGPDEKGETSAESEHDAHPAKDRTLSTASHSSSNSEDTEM
As to the kind of experiment: affinity purification with mass spectrometry; tandem affinity purification of Tag-PDZK1 from lysates of adenovirus-infected HEK293 cells (IgG-Sepharose, TEV protease cleavage, streptavidin-Sepharose); eluates separated by SDS-PAGE, digested, analysed by MS with Mascot; TAP tag alone as control.

No constants are given. Whether binding was seen depends on the method and setting. In cells and extracts the contact can be indirect. A yes stands for co-enrichment or nearness to the bait. Other partners may have been found. Where a sequence is shown, tags or fusion partners need not be part of it.

B1: breakpoint cluster region kinase (Bcr), endogenous in HEK293 cells (protein, UniProt P11274 1-1271)
chain: MVDPVGFAEAWKAQFPDSEPPRMELRSVGDIEQELERCKASIRRLEQEVNQERFRMIYLQTLLAKEKKSYDRQRWGFRRAAQAPDGASEPRASASRPQPAPADGADPPPAEEPEARPDGEGSPGKARPGTARRPGAAASGERDDRGPPASVAALRSNFERIRKGHGQPGADAEKPFYVNVEFHHERGLVKVNDKEVSDRISSLGSQAMQMERKKSQHGAGSSVGDASRPPYRGRSSESSCGVDGDYEDAELNPRFLKDNLIDANGGSRPPWPPLEYQPYQSIYVGGMMEGEGKGPLLRSQSTSEQEKRLTWPRRSYSPRSFEDCGGGYTPDCSSNENLTSSEEDFSSGQSSRVSPSPTTYRMFRDKSRSPSQNSQQSFDSSSPPTPQCHKRHRHCPVVVSEATIVGVRKTGQIWPNDGEGAFHGDADGSFGTPPGYGCAADRAEEQRRHQDGLPYIDDSPSSSPHLSSKGRGSRDALVSGALESTKASELDLEKGLEMRKWVLSGILASEETYLSHLEALLLPMKPLKAAATTSQPVLTSQQIETIFFKVPELYEIHKEFYDGLFPRVQQWSHQQRVGDLFQKLASQLGVYRAFVDNYGVAMEMAEKCCQANAQFAEISENLRARSNKDAKDPTTKNSLETLLYKPVDRVTRSTLVLHDLLKHTPASHPDHPLLQDALRISQNFLSSINEEITPRRQSMTVKKGEHRQLLKDSFMVELVEGARKLRHVFLFTDLLLCTKLKKQSGGKTQQYDCKWYIPLTDLSFQMVDELEAVPNIPLVPDEELDALKIKISQIKNDIQREKRANKGSKATERLKKKLSEQESLLLLMSPSMAFRVHSRNGKSYTFLISSDYERAEWRENIREQQKKCFRSFSLTSVELQMLTNSCVKLQTVHSIPLTINKEDDESPGLYGFLNVIVHSATGFKQSSNLYCTLEVDSFGYFVNKAKTRVYRDTAEPNWNEEFEIELEGSQTLRILCYEKCYNKTKIPKEDGESTDRLMGKGQVQLDPQALQDRDWQRTVIAMNGIEVKLSVKFNSREFSLKRMPSRKQTGVFGVKIAVVTKRERSKVPYIVRQCVEEIERRGMEEVGIYRVSGVATDIQALKAAFDVNNKDVSVMMSEMDVNAIAGTLKLYFRELPEPLFTDEFYPNFAEGIALSDPVAKESCMLNLLLSLPEANLLTFLFLLDHLKRVAEKEAVNKMSLHNLATVFGPTLLRPSEKESKLPANPSQPITMTDSWSLEVMSQVQVLLYFLQLEAIPAPDSKRQSILFSTEV
As to B1, the binding result is reported as “binds”.

Source of the values: publication PMC4401672.
